Reference: patent US20260152777A1, “METHOD FOR PRODUCING EPIGALLOCATECHIN GALLATE MONOGLUCOSIDE” (GIVAUDAN SA, priority 2022, published 2026)

Tested on: Bacillus sp.
Test: Consumption of EGCG MONOG by Bacillus sp. (HPLC-UV-MS)
Conditions: for concentration in Bacillus sp. culture (HPLC) / Variation over 48 h of concentration in Bacillus sp. culture: medium with 1% of purified preparation from Example 1

| Structure (SMILES) | concentration in Bacillus sp. culture (HPLC) (Time 24 h) [nM] | concentration in Bacillus sp. culture (HPLC) (Time 27 h) [nM] | concentration in Bacillus sp. culture (HPLC) (Time 30 h) [nM] | concentration in Bacillus sp. culture (HPLC) (Time 48 h) [nM] | concentration in Bacillus sp. culture (HPLC) (Time 54 h) [nM] | concentration in Bacillus sp. culture (HPLC) (Time 72 h) [nM] | Variation over 48 h of concentration in Bacillus sp. culture [nM] | detection in Bacillus sp. culture (after 24 hours, culture with EGCG MONOG) |
| --- | --- | --- | --- | --- | --- | --- | --- | --- |
| O=C(O[C@@H]1Cc2c(O)cc(O)cc2O[C@@H]1c1cc(O)c(O[C@H]2O[C@H](CO)[C@@H](O)[C@H](O)[C@H]2O)c(O)c1)c1cc(O)c(O)c(O)c1 [epigallocatechin gallate 4′-O-α-monoglucoside] | 0.751 | 0.678 | 0.614 | 0.443 | 0.434 | 0.288 | -0.307 | – |
| O=C(O[C@@H]1Cc2c(O)cc(O)cc2O[C@@H]1c1cc(O)c(O)c(O)c1)c1cc(O)c(O)c(O)c1 [EGCG aglycone, epigallocatechin gallate] | 0.009 | 0.035 | 0.038 | 0.013 | 0.006 | 0.002 | -0.005 | could not be detected |
